Test results as given in paper PMC4527729, “The Inner Membrane Protein PilG Interacts with DNA and the Secretin PilQ in Transformation”.

Target: T1, PilQ full-length (PilQ_(FL/1-761)) (N. meningitidis) (UniProt Q70M91)
T1 sequence: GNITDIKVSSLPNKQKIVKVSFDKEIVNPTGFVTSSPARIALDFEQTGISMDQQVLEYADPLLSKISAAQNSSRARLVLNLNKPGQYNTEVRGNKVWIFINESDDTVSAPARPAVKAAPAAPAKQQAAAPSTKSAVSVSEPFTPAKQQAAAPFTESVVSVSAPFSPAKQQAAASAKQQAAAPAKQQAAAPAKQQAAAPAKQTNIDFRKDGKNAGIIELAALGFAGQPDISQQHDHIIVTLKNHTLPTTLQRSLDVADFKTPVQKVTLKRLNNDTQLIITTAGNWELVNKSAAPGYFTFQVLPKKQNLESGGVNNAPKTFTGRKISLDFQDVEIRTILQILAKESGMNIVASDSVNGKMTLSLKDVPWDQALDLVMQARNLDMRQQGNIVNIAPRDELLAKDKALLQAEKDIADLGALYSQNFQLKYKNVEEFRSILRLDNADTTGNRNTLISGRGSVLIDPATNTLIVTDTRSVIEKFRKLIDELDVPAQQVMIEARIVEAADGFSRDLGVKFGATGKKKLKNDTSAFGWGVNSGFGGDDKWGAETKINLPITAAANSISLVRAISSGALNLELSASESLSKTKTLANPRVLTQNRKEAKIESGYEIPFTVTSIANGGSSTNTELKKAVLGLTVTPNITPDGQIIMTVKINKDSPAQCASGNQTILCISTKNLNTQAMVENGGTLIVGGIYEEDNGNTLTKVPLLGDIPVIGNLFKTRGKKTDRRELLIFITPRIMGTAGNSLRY
Assay: far-Western, overlay or dot blot; 1 ug of each purified protein (PilQ proteins, PilN, PilO, PilP, PilF, PilT, ComP, ComL, purified pili, BSA) resolved by SDS-PAGE, blotted on nitrocellulose, renatured overnight at 4°C in renaturing buffer (0.25% gelatin, 0.5% BSA, 0.2% Triton X-100, 10 mM Tris-HCl, 5 mM β-mercaptoethanol, 100 mM NaCl, pH 7.5); membrane incubated 3 h with 1 ug purified full-length or partial PilG in 10 ml renaturing buffer; bound PilG detected with rabbit antiserum; both purified

Row | Substance | binding
1 | PilG_(166-410) (N. meningitidis MC58) (domain or fragment) | no binding (tested: 1 μg in 10 ml renaturing buffer)
2 | PilG_(1-256) (N. meningitidis MC58) (domain or fragment) | binds
3 | PilG full-length (PilG_(FL/1-410)) (N. meningitidis MC58) | binds
4 | PilG_(1-178) (N. meningitidis MC58) (domain or fragment) | binds
5 | PilG_(257-410) (N. meningitidis MC58) (domain or fragment) | no binding (tested: 1 μg in 10 ml renaturing buffer)

These are yes or no findings as the source states them, for the method shown. Binding calls can cover weak binding; strength is not graded here.
